## Screening data

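Measures how well compounds keep SH-SY5Y cells alive against LACV killing, read as ATP luminescence on day six. Compounds were tested as a dilution series spanning about 0.00034 to 22 µM, with most series topping out near 4.29 µM. The value is the fitted AC50 for rescue from virus-induced death; a lower number means a more potent compound. Calls come from NCATS curve classes and activity scores, where inconclusive compounds receive scores from 1 to 39, covering weak, poorly fitted or single-point curves.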

Values are in µM. Every entry below has the call inconclusive. Only part of the assay is shown, chiefly results filed as inconclusive. Potencies fitted to partial, single-point or poorly fitting curves are rough. Some entries filed as inconclusive have a full curve. Activity scores are not listed here.

| Compound | potency (µM) | curve as filed |
|---|---|---|
| `CCC1(c2cccc(O)c2)CCCCN(C)C1` (stereo not given) | 0.7943 | inhibitor, partial curve |
| `Cc1ccccc1C(=O)Nc1ccc(C(=O)N2CCCC(N(C)C)c3ccccc32)cc1` (stereo not given) | 3.548 | inhibitor, single point |
| `Oc1cccc2cccnc12` | 1.259 | inhibitor, partial curve, poor fit |
| `CC(C)NC(C)Cc1ccc(I)cc1` (stereo not given) | 3.548 | inhibitor, partial curve, poor fit |
| `NC/C=C/C(=O)O` | 0.0891 | inhibitor, full curve |
| `COc1ccc2c(c1)/C(=C/c1cnc[nH]1)C(=O)N2` | 3.548 | inhibitor, single point |
| `O=c1oc(Cl)c(Cl)c2ccccc12` | 1.585 | inhibitor, partial curve, poor fit |
| `Cc1ccc([N+](=O)[O-])[c]2c1[O][Hg]2` | 3.162 | inhibitor, single point |
| `CC(C)NC(C)C` | 2.239 | inhibitor, partial curve, poor fit |
| `[Cl][In]([Cl])[Cl]` | 2.512 | inhibitor, partial curve |
| `Ic1ccccc1CNC1C2CCN(CC2)C1C(c1ccccc1)c1ccccc1` (stereo not given) | 7.08 | inhibitor, partial curve, poor fit |
| `O=C(O)CCCc1ccc(N(CCCl)CCCl)cc1` | 3.162 | inhibitor, single point |
| `S=C(SSC(=S)N1CCCCC1)N1CCCCC1` | 3.162 | inhibitor, single point |
| `CN(C)CCC=C1c2ccccc2CCc2ccccc21` | 3.981 | inhibitor, partial curve, poor fit |
| `C[C@@H]1O[C@@H](O[C@@H]2C=C3CC[C@@H]4[C@H](CC[C@]5(C)[C@@H](c6ccc(=O)oc6)CC[C@]45O)[C@@]3(C)CC2)[C@H](O)[C@H](O)[C@H]1O` | 0.0891 | inhibitor, full curve |
| `O=c1[nH]c2ccccc2n1CCCN1CCC(n2c(=O)[nH]c3cc(Cl)ccc32)CC1` | 3.548 | inhibitor, partial curve, poor fit |
| `N[C@@H](Cc1ccc(N(CCCl)CCCl)cc1)C(=O)O` | 1.122 | inhibitor, single point |
| `CNC[C@H](O)c1cccc(O)c1` | 3.548 | inhibitor, partial curve, poor fit |
| `c1ccc2c(c1)[I+]c1ccccc1-2` | 1.259 | inhibitor, full curve, poor fit |
| `CC(CCc1ccc(O)cc1)NCCc1ccc(O)c(O)c1` (stereo not given) | 3.548 | inhibitor, partial curve |
| `Cn1cc(C2=C(c3cn(C4CCN(Cc5ccccn5)CC4)c4ccccc34)C(=O)NC2=O)c2ccccc21` | 0.5012 | inhibitor, partial curve |
| `CCCCCCCC/C=C\CCCCCCCC(=O)NCc1ccc(O)c(OC)c1` | 3.162 | inhibitor, single point |
| `CN(C)CCCN1c2ccccc2Sc2ccccc21` | 3.162 | inhibitor, partial curve, poor fit |
| `CC(C)(C)C1CCC(CC2=C(O)c3ccccc3C(=O)C2=O)CC1` (stereo not given) | 0.3981 | inhibitor, partial curve, poor fit |
| `COC(=O)[C@@H](N)Cc1ccc(O)c(O)c1` | 1.585 | inhibitor, partial curve, poor fit |
| `NC(=O)C1(N2CCCCC2)CCN(CCCN2c3ccccc3CCc3ccc(Cl)cc32)CC1` | 0.1 | inhibitor, partial curve, poor fit |
| `CN(C)[C@@H]1C(=O)C(C(N)=O)=C(O)[C@@]2(O)C(=O)C3=C(O)c4c(O)ccc(Cl)c4[C@@H](O)[C@H]3C[C@@H]12` | 0.7079 | inhibitor, partial curve, poor fit |
| `Cc1oc(-c2ccccc2)nc1CCC(=O)c1ccc(CC2SC(=O)NC2=O)cc1` (stereo not given) | 3.162 | inhibitor, single point |
| `c1ccc2c(c1)Sc1ccccc1N2CC1CN2CCC1CC2` (stereo not given) | 0.3981 | inhibitor, partial curve, poor fit |
| `CCCn1c(=O)c2[nH]c(C3CCCC3)nc2n(CCC)c1=O` | 0.5623 | inhibitor, full curve, poor fit |
| `CN(N=O)c1ccc(O)c(O)c1` | 0.3548 | inhibitor, partial curve, poor fit |
| `Cc1ccc(O)c([C@H](CCN(C(C)C)C(C)C)c2ccccc2)c1` | 1.585 | inhibitor, single point |
| `CCC1(c2ccc(N)cc2)CCC(=O)NC1=O` (stereo not given) | 1.585 | inhibitor, partial curve |
| `Cn1c(=O)c2[nH]c(-c3ccccc3)nc2n(C)c1=O` | 1.778 | inhibitor, full curve, poor fit |
| `O=c1[nH]c(=O)n([C@H]2C[C@H](O)[C@@H](CO)O2)cc1F` | 0.2239 | inhibitor, full curve, poor fit |
| `CCn1cnc2c(Nc3cccc(Cl)c3)nc(N[C@@H]3CCCC[C@@H]3N)nc21` | 6.31 | inhibitor, single point |
| `NC1CCc2cc(O)c(O)cc2C1` (stereo not given) | 3.981 | inhibitor, single point |
| `NCC(O)C1CCCCCCC1` (stereo not given) | 1.259 | inhibitor, single point |
| `CN(C)C(=S)SSC(=S)N(C)C` | 0.7079 | inhibitor, partial curve, poor fit |
| `O=c1[nH]c2ccccc2n1C1CCN(CCCC(c2ccc(F)cc2)c2ccc(F)cc2)CC1` | 2.512 | inhibitor, partial curve, poor fit |
| `CNCCc1ccc(O)c(O)c1` | 2.818 | inhibitor, single point |
| `CCCN1CCc2cccc3c2[C@H]1Cc1ccc(O)c(O)c1-3` | 2.818 | inhibitor, partial curve, poor fit |
| `CC(=O)[O][Hg][c]1ccccc1` | 3.162 | inhibitor, single point |
| `CC(C)ON([C@@H](C(=O)NO)C(C)C)S(=O)(=O)c1ccc(-c2ccccc2)cc1` | 0.2512 | inhibitor, full curve, poor fit |

Once more, the final 3:

Compound	potency (µM)	curve as filed
CCCN1CCc2cccc3c2[C@H]1Cc1ccc(O)c(O)c1-3	2.818	inhibitor, partial curve, poor fit
CC(=O)[O][Hg][c]1ccccc1	3.162	inhibitor, single point
CC(C)ON([C@@H](C(=O)NO)C(C)C)S(=O)(=O)c1ccc(-c2ccccc2)cc1	0.2512	inhibitor, full curve, poor fit

Source: PubChem BioAssay AID1508616 (NCATS, 2020).